From article PMC7862700 come the findings set out here.

The chains behind the UniProt entries cited, without tags or fusion partners. Where a name states a change or a piece, a line headed by the entry shows the natural chain unless it says otherwise.
UniProt O43186: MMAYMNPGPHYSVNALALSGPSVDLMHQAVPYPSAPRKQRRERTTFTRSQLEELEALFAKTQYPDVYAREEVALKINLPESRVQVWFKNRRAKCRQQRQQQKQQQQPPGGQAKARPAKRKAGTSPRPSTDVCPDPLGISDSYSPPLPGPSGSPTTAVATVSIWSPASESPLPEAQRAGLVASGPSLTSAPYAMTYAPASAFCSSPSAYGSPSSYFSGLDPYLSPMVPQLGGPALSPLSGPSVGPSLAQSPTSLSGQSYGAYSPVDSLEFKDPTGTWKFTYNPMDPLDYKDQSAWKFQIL

The list shows a part of the results, in another mix than the full data. At the low end of the ranking the order means little.

The target in the first assay is T1, FEV (UniProt Q99581).
T1 sequence: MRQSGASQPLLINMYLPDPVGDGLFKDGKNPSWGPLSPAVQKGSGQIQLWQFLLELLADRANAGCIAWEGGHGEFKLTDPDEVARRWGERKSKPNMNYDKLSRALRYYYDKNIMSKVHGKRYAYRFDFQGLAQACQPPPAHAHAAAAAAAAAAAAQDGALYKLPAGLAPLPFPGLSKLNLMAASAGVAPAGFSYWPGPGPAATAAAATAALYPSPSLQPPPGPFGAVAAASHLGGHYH
The assay is described as follows: DAPPL (digital affinity profiling via proximity ligation, sequencing). The conditions noted are these: 10 mM Tris-HCl pH 7.5, 50 mM NaCl, 1 mM DTT, 4% glycerol, room temperature, 30 min; GST-TFs on glutathione beads, 16-mer random dsDNA library, 0.1% …; high values mean tight binding; double strand, one strand shown; scale: fold enrichment (6-mer frequency, TF over GST control).
CTACTC had a binding signal of 1.37.
Same read-out and setting: next, TCTCAA: 1.25; TTAACC: 1.29.
Turning to AAATTT, the binding signal amounted to 1.34.
CTTGTC came in with a binding signal of 1.23.
Still for that read-out and setting: for CGCTAG the value was 1.06; for TGGCTT, 1.34.
On the same count and under the same terms, next, AAAACT: 1.16; GTTCCG: 1.99; TATCGA: 1.2.
On to CGTATG, for which the binding signal was determined as 0.98.
ACGTTA gave a binding signal of 1.13.
ATGAAA gave a binding signal of 1.13.
Same read-out and setting: next, GCTAAT: 1.18; TCTCTA: 1.32; AAGAAA: 1.15.
In the case of ACTCCT, the binding signal came to 1.47.
TATGTA registered a binding signal of 1.28.
Sequence ATTCTA yielded a binding signal of 1.14.
For the sequence CTCAAT, the binding signal was 1.23.
The sequence ACACGA yielded a binding signal of 1.1.
Still for that read-out and setting: next, GCGCTC: 1.06.
As for CTGGGT, the binding signal amounted to 1.06.
With GATACT, the binding signal is 1.1.
Turning to AGATTC, the binding signal was found to be 1.13.
On the same count and under the same terms, next, CGCTAC: 1.18.
As for TCCGGA, the binding signal was determined as 3.95.
For ACTTTA, the binding signal came to 1.15.
Turning to AAGTCT, the binding signal was found to be 1.07.
The sequence TATTGG displayed a binding signal of 1.14.
AAGGTA showed a binding signal of 1.02.
Still for that read-out and setting: for TCTACG the value was 1.52; for CTAGTT, 1.23; for CTGCCT, 1.2.
Regarding GAAGTT, the binding signal worked out at 1.62.
In turn, GGAAGC had a binding signal of 1.74.
The same measure, in the same setting: for GTTCCA the value was 1.01; for CCCTGG, 1.08; for AATTGG, 1.43.
Same read-out and setting: next, ATCTGT: 1.22.

The target in the next assay is CRX (UniProt O43186). The assay is described as above. The settings on record: 10 mM Tris-HCl pH 7.5, 50 mM NaCl, 1 mM DTT, 4% glycerol, room temperature, 30 min; GST-TFs on glutathione beads, 16-mer random dsDNA library, 0.1% …; high values mean tight binding; double strand, one strand shown; scale: fold enrichment (6-mer frequency, TF over GST control).
CTACTC gave a binding signal of 1.28.
The same measure, in the same setting: for TCTCAA the value was 1.39; for TTAACC, 2.67.
Take AAATTT: the binding signal came to 1.24.
Consider CTTGTC, for which the binding signal came to 0.981.
In turn, CGCTAG registered a binding signal of 0.98.
The sequence TGGCTT gave a binding signal of 1.75.
Same read-out and setting: for AAAACT the value was 1.16; for GTTCCG, 0.753; for TATCGA, 1.59.
With CGTATG, the binding signal amounted to 0.789.
Still for that read-out and setting: for ACGTTA the value was 1.17; for ATGAAA, 1.08.
Take GCTAAT: the binding signal stood at 2.56.
Consider TCTCTA, for which the binding signal amounted to 1.56.
AAGAAA showed a binding signal of 1.29.
ACTCCT: the binding signal is 1.32.
In turn, TATGTA gave a binding signal of 1.51.
Same read-out and setting: next, ATTCTA: 1.84; CTCAAT: 1.25.
Regarding ACACGA, the binding signal was determined as 0.964.
For the sequence GCGCTC, the binding signal amounted to 0.964.
Consider CTGGGT, for which the binding signal turned out to be 0.915.
In turn, GATACT registered a binding signal of 1.07.
In the case of AGATTC, the binding signal was determined as 1.41.
Sequence CGCTAC showed a binding signal of 0.864.
On the same count and under the same terms, for TCCGGA the value was 1.14; for ACTTTA, 1.54; for AAGTCT, 1.28.
As to TATTGG, the binding signal stood at 1.4.
Same read-out and setting: for AAGGTA the value was 1.05; for TCTACG, 1.44; for CTAGTT, 1.16.
The same measure, in the same setting: next, CTGCCT: 1.11.
Sequence GAAGTT yielded a binding signal of 0.923.
GGAAGC displayed a binding signal of 0.607.
In the case of GTTCCA, the binding signal came to 0.996.
With CCCTGG, the binding signal was 1.06.
AATTGG: the binding signal was found to be 1.23.
On the same count and under the same terms, next, ATCTGT: 1.45.
